# Assay results as given in PubChem BioAssay AID662 (National Center for Advancing Translational Sciences (NCATS), 2007).
# Some of the results follow. Further columns of the screen follow, without active or inactive calls. Most of these compounds were active or inconclusive in the main read-out, so they are no random draw. Potencies come from curve fits of mixed quality, noted in brackets.
# Assay: Cell signaling CRE-BLA (Fsk stim)
# Settings: CHO CRE-bla reporter (cAMP response element driving beta-lactamase), forskolin EC10, beta-lactamase ratio; measured here: 460 nm blue channel
# Method in brief: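 CRE-bla CHO reporter cells treated with compound titration plus EC10 NKH 477 (water-soluble forskolin), incubated 3 h at 37 °C; CCF4 loading 2 h at room temperature, 460/530 nm emission ratio read, AC50 values derived for positive or negative modulators.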
row,SMILES,AC50
1,Cc1cnc(NC(=O)CN(C)S(=O)(=O)c2ccc(Cl)cc2)s1,"5.01 µM [falling, single point]"
2,CCCCCn1c(N(C)Cc2ccccc2)nc2c1c(=O)[nH]c(=O)n2C,"6.31 µM [rising, partial curve]"
3,CNC(=O)c1cc2c(cn1)[nH]c1ccccc12,"0.0398 µM [rising, full curve, poor fit]"
4,NC(N)=NNC(=O)C(=O)O,"5.01 µM [rising, single point]"
5,CCc1nc(NCCN2CCOCC2)c2oc3ccccc3c2n1,"12.6 µM [rising, single point]"
6,C[C@@H](/C=C\c1cccc(Oc2ccc(F)cc2)c1)N(O)C(N)=O,"0.0794 µM [rising, full curve, poor fit]"
7,C=CCn1c(SCn2nnc3ccccc3c2=O)nc2scc(-c3cccs3)c2c1=O,"1.58 µM [rising, full curve]"
8,O=C(CSc1nc2ccccc2o1)NC(=O)NCc1ccco1,"0.126 µM [falling, full curve, poor fit]"
9,COc1ccc(CCn2c(SCC(=O)Nc3cc(C)on3)nc3ccsc3c2=O)cc1OC,"6.31 µM [rising, partial curve]"
10,CCn1nc(NC(=O)c2ccncc2)c2cc3cc(C)ccc3nc21,"3.98 µM [rising, partial curve]"
11,CCOc1ccccc1N1CCN(C(=O)c2cc[n+]([O-])cc2)CC1,"5.01 µM [falling, partial curve]"
12,Brc1cnc(N2CCOCC2)nc1N1CCCCC1,"20 µM [rising, partial curve, poor fit]"
13,Cc1ccc(CNc2oc(-c3cccs3)nc2C#N)cc1,"5.01 µM [rising, partial curve]"
14,COc1ccccc1-c1ccc2ncnc(Nc3ccccc3)c2c1,"10 µM [falling, single point]"
15,Nc1ccc(-n2c(N)c(C(=O)NCc3ccc4c(c3)OCO4)c3nc4ccccc4nc32)cc1,"10 µM [rising, partial curve]"
16,COCCn1c(SC(C)C(=O)Nc2ccc3c(c2)OCCO3)nc2ccccc2c1=O (centres undefined),"10 µM [rising, partial curve]"
17,CC(C)OC(=O)c1nnn(-c2nonc2N)c1CN1CCCCCC1,"5.01 µM [falling, single point]"
18,Cn1cc(-c2nc3cncnc3n(-c3ccccc3)c2=O)c2ccccc21,"10 µM [rising, partial curve]"
19,COc1ccc(CCNC2CC(=O)N(CCc3ccc(OC)c(OC)c3)C2=O)cc1OC (centres undefined),"15.8 µM [rising, single point]"
20,COc1ccc(CN(CCN(C)C)c2ccccn2)cc1,"31.6 µM [falling, single point]"
21,COc1ccc(N(CC(=O)Nc2ccc(C)cn2)S(=O)(=O)c2c(C)noc2C)cc1,"5.01 µM [falling, partial curve]"
22,Cc1[nH]c2ccccc2c1C(=O)CN1CCCCC1C (centres undefined),"2.51 µM [falling, full curve]"
23,COCCCn1c(=N)c(C(=O)NCC2CCCO2)cc2c(=O)n3cccc(C)c3nc21 (centres undefined),"10 µM [rising, partial curve]"

row,SMILES,AC50
1,CCOC(=O)CSc1nc2c(c(=O)[nH]c(=O)n2C)n1C/C=C(/C)Cl,"12.6 µM [rising, partial curve]"
2,C/C(CC(O)c1ccc2ccccc2n1)=N/O (centres undefined),"0.00631 µM [falling, full curve]"
3,Cc1ccc(-n2c(=O)[nH]cc(C(=O)Nc3ccc4c(c3)OCO4)c2=O)cc1C,"10 µM [rising, single point]"
4,CC(=O)N1CCc2cc(S(=O)(=O)CCC(=O)N3CCN(c4ccccn4)CC3)ccc21,"25.1 µM [rising, single point]"
5,O=c1c2ccccc2c(C=NC2CCS(=O)(=O)C2)c(O)n1-c1ccccc1 (centres undefined),"25.1 µM [rising, single point]"
6,CC1CCCN(c2nc3c(c(=O)[nH]c(=O)n3C)n2CCCc2ccccc2)C1 (centres undefined),"15.8 µM [falling, partial curve]"
7,OC1CCCN(Cc2cccc3ccccc23)C1 (centres undefined),"0.2 µM [rising, full curve, poor fit]"
8,CC(=O)Oc1ccc2oc(=O)c3c(c2c1)CCCN3C(=O)CN1CCN(c2ncccn2)CC1,"10 µM [rising, partial curve]"
9,O=C(Nc1cccc(S(=O)(=O)C(F)F)c1)c1ccc(Cl)c(S(=O)(=O)N2CCOCC2)c1,"25.1 µM [falling, single point]"
10,Cc1ccc(-c2cnc(-c3ccncc3)o2)cc1,"1 µM [falling, single point]"
11,COCCn1c(=O)c(-c2cccs2)nc2cnc(OC)nc21,"2.51 µM [rising, full curve]"
12,COc1ccc(C2C(C#N)=C(C)NC3=C2C(=O)CC(C)(C)C3)c(OC)c1 (centres undefined),"10 µM [rising, single point]"
13,O=C1NCCCC1C(=O)N1CCN(C(=O)c2ccco2)CC1 (centres undefined),"0.501 µM [rising, partial curve]"
14,CN(Cc1ccco1)c1ncnc2ccc(-c3cccc(C#N)c3)cc12,"10 µM [rising, partial curve]"
15,COc1ccc(Br)cc1C(=O)O,"25.1 µM [falling, single point]"
16,COc1ccc(CCNC(=O)c2cnc3scc(C)n3c2=O)cc1OC,"7.94 µM [rising, partial curve]"
17,CCSC(=N)N,"15.8 µM [falling, partial curve, poor fit]"
18,Cc1cc2n(n1)C(c1ccco1)Nc1ccccc1-2 (centres undefined),"3.16 µM [rising, full curve]"
19,Cc1cc(C)n(-c2nnc(C)c(=O)[nH]2)n1,"1 µM [rising, single point]"
20,COC(=O)c1ccc(C(NC(=O)OCc2ccccc2)/C(I)=C/[C@@H](C)C(=O)NCc2ccc(C)o2)cc1 (some centres undefined),"10 µM [falling, partial curve]"
21,CCSc1nnc2c(n1)[nH]c1c(C)cccc12,"12.6 µM [rising, partial curve]"
22,O=C(N[C@@H](Cc1ccccc1)C(=O)CCl)OCc1ccccc1,"10 µM [falling, full curve]"
23,COC(=O)C1=CN(CC2CCCO2)C=C(C(=O)OC)C1c1cc(OC)c(OC)c(OC)c1 (centres undefined),"10 µM [rising, partial curve]"

row,SMILES,AC50
1,Cc1noc(C)c1C(=O)OCC(=O)Nc1ccccc1C(=O)NC(C)c1ccccc1 (centres undefined),"12.6 µM [rising, single point]"
2,CCNc1ncc2nc(-c3ccccc3)c(=O)n(CCOC)c2n1,"12.6 µM [rising, partial curve]"
3,Cc1ccc(S(=O)(=O)NC(=O)NC(C)(C)C)cc1,"0.00398 µM [falling, full curve]"
4,COc1cccc(-c2cn3nc4c(nc3n2)CCCC4)c1,"12.6 µM [rising, partial curve]"
5,COc1ccc(-c2noc(CCC(=O)N3CCN(c4cc(C)ccc4C)CC3)n2)cc1,"0.1 µM [falling, full curve, poor fit]"
6,CCOc1ccccc1-n1c(SCC(=O)NC2CCCC2)nnc1-c1ccoc1C,"0.1 µM [falling, single point]"
7,C=CCn1c(SCC(=O)NCC2CCCO2)nc2scc(-c3ccco3)c2c1=O (centres undefined),"7.94 µM [rising, partial curve]"
8,CC(C)(C)OC(=O)N1CCC(c2c(C(=O)O)cnn2-c2ccccc2Cl)CC1,"0.00398 µM [rising, full curve, poor fit]"
9,COc1ncc2nc(C)c(=O)n(CCC#N)c2n1,"25.1 µM [rising, single point]"
10,CSc1nnc2c3c4c(sc3c(=O)n(-c3ccccc3)n12)CC(C)(C)OC4,"15.8 µM [rising, partial curve]"
11,COc1ccc(OC)c(C2C=C(c3ccc(C)c(C)c3)Nc3nnnn32)c1 (centres undefined),"12.6 µM [rising, partial curve]"
12,COc1ccc(-c2nc(C)c(C(C)=O)n2O)cc1OC,"0.00398 µM [falling, full curve, poor fit]"
13,COc1cccc2c(=O)c3c(cnn3C)n(C)c12,"10 µM [rising, partial curve]"
14,CCOC(=O)c1cnc(SCC(=O)Nc2nc(C)c(C)s2)nc1N,"12.6 µM [rising, partial curve]"
15,CC(=O)c1c(N)[nH]c(-c2ccccc2)nc1=S,"12.6 µM [rising, single point]"
16,Cc1ccc(SC(C)c2nc(-c3ccccc3)no2)cc1 (centres undefined),"0.00398 µM [falling, full curve, poor fit]"
17,Cc1cc(C)nc(SCNC(=O)c2ccc(F)cc2)n1,"15.8 µM [rising, single point]"
18,Cn1c(=O)c2[nH]c(CNCc3ccccc3Cl)nc2n(C)c1=O,"10 µM [rising, single point]"
19,COc1ccc(OC)c(NC(=O)C2C3CCC(O3)C2C(=O)O)c1 (centres undefined),"12.6 µM [rising, single point]"
20,CCNc1ncc2nc(CCc3ccccc3)c(=O)n(C[C@H]3CCCO3)c2n1,"10 µM [rising, partial curve, poor fit]"
21,COc1ccccc1CCn1c(=O)c(-c2ccc(F)cc2)nc2cncnc21,"20 µM [rising, partial curve, poor fit]"
22,O=C(CSc1nnc2scc(-c3ccccc3)n12)Nc1nsc(-c2ccccc2)n1,"5.01 µM [rising, partial curve]"
23,O=c1c(-c2cc(F)cc(F)c2)nc2cnc(N3CCNCC3)nc2n1CCc1ccccc1,"3.16 µM [rising, full curve]"

# Three entries out of the list, sorted by heavy-atom count, low to high:
row,SMILES,AC50
15,CC(=O)c1c(N)[nH]c(-c2ccccc2)nc1=S,"12.6 µM [rising, single point]"
12,COc1ccc(-c2nc(C)c(C(C)=O)n2O)cc1OC,"0.00398 µM [falling, full curve, poor fit]"
8,CC(C)(C)OC(=O)N1CCC(c2c(C(=O)O)cnn2-c2ccccc2Cl)CC1,"0.00398 µM [rising, full curve, poor fit]"
